In the supplement of paper PMC6078165:
The reference is the same well before dosing, and untreated signal decays as well.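 Fibroblast labels denote human fibroblasts, mainly primary ones from uterus (C12385, HUF), lung (H6013), bone (Hs27A), adrenal (HADF) and skin (WS1), plus mammary HMF and breast cancer-associated Hs343T. Cancer cells are basal-like or mesenchymal-like triple-negative breast cancer lines. A hit is a response shift exceeding 3x replicate standard deviation. The tissue of the other fibroblasts is not given here.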

Tested on: BT20
Experiment: relative JC-1 red fluorescence (viability) vs pre-drug, coculture with fibroblast (fraction); higher = more viable cancer cells
Protocol: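 JC-1 labelled TNBC cells cocultured 1:1 (1,500 cells each) with CellTrace Violet stained primary or stromal fibroblasts in 384-well plates in FluoroBrite medium, treated with one of 42 anticancer drugs at 0.1, 1, 10 or 100 uM. JC-1 red fluorescence (mitochondrial integrity in cancer cells only) was read by plate reader every 8 h for 72 h. Values are normalised to each well's pre-drug value. The stock of one drug was tenfold lower, so its dose labels may be too high.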

O=NN(CCCl)C(=O)NCCCl [Carmustine]
relative JC-1 red fluorescence
Conditions | 8 h | 16 h | 24 h | 32 h | 40 h | 48 h | 56 h | 64 h | 72 h
10 µM, coculture fibroblast: C12385 | 0.906 | 0.816 | 0.751 | 0.688 | 0.633 | 0.601 | 0.58 | 0.56 | 0.537
10 µM, coculture fibroblast: H6013 | 0.865 | 0.896 | 0.8615 | 0.8443 | 0.797 | 0.771 | 0.761 | 0.737 | 0.715
10 µM, coculture fibroblast: H6019 | 0.8793 | 0.7958 | 0.763 | 0.698 | 0.658 | 0.635 | 0.602 | 0.576 | 0.558
10 µM, coculture fibroblast: H6076 | 0.87 | 0.9403 | 0.84589 | 0.834 | 0.802 | 0.784 | 0.772 | 0.775 | 0.761
10 µM, coculture fibroblast: H6231 | 0.84 | 0.957 | 0.8295 | 0.772 | 0.711 | 0.6606 | 0.61 | 0.578 | 0.545
10 µM, coculture fibroblast: HADF | 0.8949 | 0.935 | 0.87 | 0.864 | 0.819 | 0.77 | 0.732 | 0.7 | 0.655
10 µM, coculture fibroblast: HCFa | 0.969 | 0.91 | 0.853 | 0.808 | 0.753 | 0.716 | 0.679 | 0.643 | 0.598
10 µM, coculture fibroblast: HCPF | 0.86 | 0.931 | 0.82 | 0.759 | 0.708 | 0.668 | 0.621 | 0.5944 | 0.5547
10 µM, coculture fibroblast: HHSteC | 0.951 | 0.864 | 0.841 | 0.772 | 0.718 | 0.679 | 0.651 | 0.623 | 0.589
10 µM, coculture fibroblast: HMF | 0.928 | 0.901 | 0.822 | 0.781 | 0.744 | 0.699 | 0.67 | 0.636 | 0.604
10 µM, coculture fibroblast: HPFa | 0.926 | 0.785 | 0.844 | 0.799 | 0.78 | 0.759 | 0.786 | 0.743 | 0.674
10 µM, coculture fibroblast: HUF | 0.953 | 0.853 | 0.807 | 0.718 | 0.651 | 0.605 | 0.581 | 0.561 | 0.547
10 µM, coculture fibroblast: Hs5 | 0.83 | 0.9128 | 0.8356 | 0.7883 | 0.735 | 0.699 | 0.658 | 0.625 | 0.585
10 µM, coculture fibroblast: Hs27A | 0.7859 | 0.779 | 0.9394 | 0.958 | 0.91 | 0.902 | 0.868 | 0.839 | 0.774
10 µM, coculture fibroblast: Hs343T | 0.922 | 0.876 | 0.782 | 0.73 | 0.679 | 0.634 | 0.586 | 0.564 | 0.522
10 µM, coculture fibroblast: WS1 | 0.879 | 0.8 | 0.695 | 0.615 | 0.5464 | 0.504 | 0.4635 | 0.4226 | 0.3935
100 µM, coculture fibroblast: C12385 | 0.86 | 0.81 | 0.814 | 0.771 | 0.718 | 0.697 | 0.669 | 0.65 | 0.629
100 µM, coculture fibroblast: H6013 | 0.962 | 0.854 | 0.871 | 0.836 | 0.854 | 0.797 | 0.828 | 0.807 | 0.825
100 µM, coculture fibroblast: H6019 | 0.853 | 0.806 | 0.809 | 0.751 | 0.708 | 0.701 | 0.667 | 0.648 | 0.629
100 µM, coculture fibroblast: H6076 | 0.9526 | 0.906 | 0.869 | 0.852 | 0.854 | 0.854 | 0.88 | 0.802 | 0.761
100 µM, coculture fibroblast: H6231 | 0.946 | 0.864 | 0.784 | 0.737 | 0.7019 | 0.667 | 0.648 | 0.63 | 0.619
100 µM, coculture fibroblast: HADF | 0.9387 | 0.898 | 0.887 | 0.845 | 0.827 | 0.823 | 0.817 | 0.829 | 0.802
100 µM, coculture fibroblast: HCFa | 0.9585 | 0.896 | 0.826 | 0.877 | 0.856 | 0.858 | 0.855 | 0.883 | 0.799
100 µM, coculture fibroblast: HCPF | 0.975 | 0.9 | 0.825 | 0.773 | 0.741 | 0.705 | 0.677 | 0.657 | 0.622
100 µM, coculture fibroblast: HHSteC | 0.9264 | 0.904 | 0.905 | 0.835 | 0.814 | 0.795 | 0.791 | 0.773 | 0.753
100 µM, coculture fibroblast: HMF | 0.98 | 0.866 | 0.7443 | 0.6812 | 0.626 | 0.584 | 0.555 | 0.532 | 0.495
100 µM, coculture fibroblast: HPFa | 0.9016 | 0.867 | 0.8534 | 0.787 | 0.7609 | 0.7252 | 0.716 | 0.696 | 0.657
100 µM, coculture fibroblast: HUF | 0.882 | 0.812 | 0.791 | 0.713 | 0.669 | 0.639 | 0.632 | 0.63 | 0.622
100 µM, coculture fibroblast: Hs5 | 0.97666 | 0.914 | 0.87 | 0.831 | 0.811 | 0.788 | 0.784 | 0.777 | 0.765
100 µM, coculture fibroblast: Hs27A | 0.79 | 0.974 | 0.956 | 0.906 | 0.872 | 0.881 | 0.87 | 0.868 | 0.823
100 µM, coculture fibroblast: Hs343T | 0.948 | 0.895 | 0.776 | 0.7 | 0.635 | 0.5755 | 0.518 | 0.479 | 0.427
100 µM, coculture fibroblast: WS1 | 0.837 | 0.778 | 0.74 | 0.669 | 0.61 | 0.582 | 0.549 | 0.522 | 0.506
